PubChem BioAssay AID1671195 – Yale University – 2021
Aim: 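Knockdowns that increase or decrease uptake of fluorescent LDL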 (primary screen). System: human Huh7 hepatoma cells. Reagent: siRNA pool against human genes, 18 nM. Duration: about 2 to 2.5 days of knockdown, then 8 h LDL uptake. Treatment: DiI-labelled LDL at 30 µg/ml for 8 h, in lipoprotein-deficient serum medium. Measured: 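Fluorescent LDL signal imaged in cells, scaled to the plate median, robust z-score for each replicate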. Direction: robust z-score: higher = more LDL uptake after knockdown. Rule for the call: 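Active when two or more replicates show a robust z-score above 2 or below -2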.
The deposit covers about 22,000 reagents; shown is a part drawn at random. About 1,510 of them (6.9%) were called active. 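Active includes knockdowns raising or lowering LDL uptake; positive z-scores mean more uptake, negative mean less.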 A number with no mark means an inactive call. Reagents against one gene are numbered here. Reagent sequences are not shown.

| gene symbol | reagent no. | robust z-score, replicate 1 | robust z-score, replicate 2 | robust z-score, replicate 3 |
| --- | --- | --- | --- | --- |
| ASIC2 | 1 | -0.669 | -0.711 | -0.513 |
| KLK1 | 1 | -0.428 | -0.835 | -0.618 |
| STAG3L4 | 1 | -0.655 | -1.03 | -0.812 |
| GALNTL5 | 1 | -0.342 | -0.116 | -0.012 |
| TXNRD2 | 1 | -1.71 | -1.56 | -1.64 |
| MYO6 | 1 | 0.394 | 0.686 | 0.624 |
| SLC39A3 | 1 | 1.99 | 1.43 | 1.97 |
| JADE2 | 1 | -1.64 | -2 | -1.7 |
| EXOC3L4 | 1 | -0.106 | -1.21 | -1.31 |
| LOC339760 (retired record) | 1 | -0.145 | -0.201 | -0.0935 |
| APAF1 | 1 | 1.06 | -0.0553 | 0.149 |
| CNIH4 | 1 | 0.487 | -1.52 | 0.238 |
| LCLAT1 | 1 | -0.427 | -1.14 | -1.59 |
| ERP44 | 1 | 0.0799 | 0.519 | -0.072 |
| UBA7 | 1 | 0.235 | -1.34 | 0.33 |
| LOC440180 | 1 | 0.087 | 0.0873 | 0.763 |
| FRY | 1 | 1.33 | 1.61 | 1.19 |
| FBXO5 | 1 | -0.158 | 0.774 | -0.432 |
| ENO3 | 1 | 0.769 | -0.968 | 0.478 |
| RBM34 | 1 | -0.753 | -1 | -0.246 |
| LOC440455 (retired record) | 1 | 0.488 | -0.44 | 0.111 |
| SPATA31J1 | 1 | 0.435 | 0.271 | 0.203 |
| SPATA31J1 | 2 | 0.421 | 0.00584 | 0.0875 |
| CWH43 | 1 | -0.483 | -0.409 | -0.539 |
| LOC339209 (retired record) | 1 | 1.67 | 1.69 | 1.35 |
| CCDC171 | 1 | -0.211 | -0.154 | -0.329 |
| IGFBP4 | 1 | 1.43 | 0.562 | 1.03 |
| CIRSR | 1 | -0.575 | -1.16 | -1.17 |
| OR5W2 | 1 | 1.36 | 1.32 | 1.2 |
| LPAR5 | 1 | -0.47 | -1.21 | -1.16 |
| THAP10 | 1 | 1.66 | 1.25 | 2.68 |
| LINC02878 | 1 | 0.406 | 0.675 | 0.458 |
| TBC1D31 | 1 | 1.8 | 1.59 | 1.28 |
| CR2 | 1 | -0.448 | -1.02 | -1.26 |
| TCEAL5 | 1 | -1.48 | -1.42 | -0.891 |
| LINC01299 | 1 | 2.14 | 1.96 | 1.82 |
| COX7B2 | 1 | -0.611 | -0.726 | -0.158 |
| LOC442377 (retired record) | 1 | -1.14 | -1.2 | -0.895 |
| FGF9 | 1 | -0.281 | -1.08 | -0.89 |
| RARS2 | 1 | 2.32 (active) | 1.97 | 1.75 |
| LOC390906 (retired record) | 1 | -0.496 | -0.314 | -0.48 |
| MAPK4 | 1 | 0.42 | 0.00945 | 0.825 |
| GAL3ST3 | 1 | -2.66 (active) | -2.68 | -2.67 |
| GPR18 | 1 | 0.222 | 0.239 | -0.189 |
| SYNPO | 1 | 0.545 | -1.09 | -0.0907 |
| AKAP5 | 1 | -0.294 | 0.231 | -0.267 |

Active calls, of those listed so far:
| gene symbol | reagent no. | robust z-score, replicate 1 | robust z-score, replicate 2 | robust z-score, replicate 3 |
| --- | --- | --- | --- | --- |
| RARS2 | 1 | 2.32 (active) | 1.97 | 1.75 |
| GAL3ST3 | 1 | -2.66 (active) | -2.68 | -2.67 |
